Data as given in PubChem BioAssay AID1224830 (NIAID, 2016)

- Assay: 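Genes whose knock-down alters the TNF-alpha reporter response to LPS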 (primary screen)
- Cell system: human THP-1 monocytic leukaemia cells, TNF dual-luciferase reporter clone, PMA-differentiated to macrophage-like cells
- Knock-down reagent: siRNA pool against human genes, 50 nM
- Duration: LPS for 4 h, given about 3 days after siRNA transfection
- Challenge: bacterial LPS (TLR4 ligand), 10 ng/ml
- Read-out: 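TNF firefly reporter luminescence divided by renilla, normalised to the plate median, then turned into a robust z-score for each replicate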
- Scale: TNF reporter robust z-score: higher = stronger TNF reporter response to LPS
- Hit rule: 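a well is active when its z-score exceeds 2.8 or falls below -1.5; control wells carry no call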
Here is one part, drawn at random, of about 18,000 deposited reagents. About 2,900 of all reagents (16%) were called active. 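Calls are made per well; low scores hint the gene aids the LPS response, high scores that it dampens it.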 Unmarked entries are inactive. Repeated entries: four replicate wells of each siRNA pool.

NDP: TNF reporter robust z-score = 1.6
NDP: TNF reporter robust z-score = 1.75
NDP: TNF reporter robust z-score = 1.41
NDP: TNF reporter robust z-score = 1.92
ITM2C: TNF reporter robust z-score = -0.45
ITM2C: TNF reporter robust z-score = 1.02
ITM2C: TNF reporter robust z-score = 1.24
ITM2C: TNF reporter robust z-score = 1.38
TUBB6: TNF reporter robust z-score = -0.92
TUBB6: TNF reporter robust z-score = 0.3
TUBB6: TNF reporter robust z-score = -1.21
TUBB6: TNF reporter robust z-score = -0.97
NACA: TNF reporter robust z-score = -0.34
NACA: TNF reporter robust z-score = 0.2
NACA: TNF reporter robust z-score = 0.15
NACA: TNF reporter robust z-score = -0.24
ITFG1: TNF reporter robust z-score = 0.56
ITFG1: TNF reporter robust z-score = 0.84
ITFG1: TNF reporter robust z-score = 0.48
ITFG1: TNF reporter robust z-score = 0.47
CCDC28A: TNF reporter robust z-score = 0.01
CCDC28A: TNF reporter robust z-score = 0.93
CCDC28A: TNF reporter robust z-score = 1.51
CCDC28A: TNF reporter robust z-score = 1.58
DYNC2I2: TNF reporter robust z-score = -1.16
DYNC2I2: TNF reporter robust z-score = -0.02
DYNC2I2: TNF reporter robust z-score = -1.51 (active)
DYNC2I2: TNF reporter robust z-score = -0.37
ROS1: TNF reporter robust z-score = 1.16
ROS1: TNF reporter robust z-score = 2.52
ROS1: TNF reporter robust z-score = 0.18
ROS1: TNF reporter robust z-score = 1.12
ACCSL: TNF reporter robust z-score = -0.44
ACCSL: TNF reporter robust z-score = 0.64
ACCSL: TNF reporter robust z-score = 0.35
ACCSL: TNF reporter robust z-score = 0.24
CHST1: TNF reporter robust z-score = -0.21
CHST1: TNF reporter robust z-score = 0.15
CHST1: TNF reporter robust z-score = -0.55
CHST1: TNF reporter robust z-score = -1.07
TENM3: TNF reporter robust z-score = -0.15
TENM3: TNF reporter robust z-score = -0.73
TENM3: TNF reporter robust z-score = -0.3
TENM3: TNF reporter robust z-score = -0.63
SLC22A4: TNF reporter robust z-score = 0.12
SLC22A4: TNF reporter robust z-score = 0.71
SLC22A4: TNF reporter robust z-score = 1.88
SLC22A4: TNF reporter robust z-score = 0.1

Entries above with an active call (1):
DYNC2I2: TNF reporter robust z-score = -1.51 (active)
